No constants are given. Whether binding was seen depends on the method and setting.

Sequences of proteins named here, by UniProt entry; tags and fusion partners are left off.
UniProt P40709: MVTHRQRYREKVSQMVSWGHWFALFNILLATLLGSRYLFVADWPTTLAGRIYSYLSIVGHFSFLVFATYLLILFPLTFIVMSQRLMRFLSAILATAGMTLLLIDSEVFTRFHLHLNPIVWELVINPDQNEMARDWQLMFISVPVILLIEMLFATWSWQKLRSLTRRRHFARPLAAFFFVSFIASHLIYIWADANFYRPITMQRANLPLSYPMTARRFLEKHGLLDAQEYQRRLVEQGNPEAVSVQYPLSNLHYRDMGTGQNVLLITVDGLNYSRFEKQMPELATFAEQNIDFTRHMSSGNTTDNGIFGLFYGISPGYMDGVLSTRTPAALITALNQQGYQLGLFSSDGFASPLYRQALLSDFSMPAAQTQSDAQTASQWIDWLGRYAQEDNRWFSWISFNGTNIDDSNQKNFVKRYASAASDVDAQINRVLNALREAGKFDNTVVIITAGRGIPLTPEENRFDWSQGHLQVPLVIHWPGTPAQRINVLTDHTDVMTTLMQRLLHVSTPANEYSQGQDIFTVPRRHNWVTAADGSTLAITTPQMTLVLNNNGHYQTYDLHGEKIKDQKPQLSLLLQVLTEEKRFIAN

For this experiment, the target named is PbgA (PhoPQ barrier gene A), full-length, S. Typhimurium (S. Typhimurium 14028s) (UniProt P40709). Description: SEC-MALS; PbgA in solution; conditions of the SEC-MALS run are not told (protein purified in 20 mM HEPES pH 7.0, 150 mM NaCl, 0.03% DDM); both purified. Background: In gel filtration, larger molecules generally elute earlier.

Turning to “PbgA (PhoPQ barrier gene A), full-length, S. Typhimurium (from UniProt P40709 1-586)”, the binding entry is “no binding”.

The record behind these values is article PMC7018646.
